# In the supplement of paper PMC6411743:
# Protein sequences, listed by entry. Tags and fused reporters are not part of them. Lines headed by an entry give the natural chain unless they say otherwise; changes in a name come on top.
# UniProt Q02127: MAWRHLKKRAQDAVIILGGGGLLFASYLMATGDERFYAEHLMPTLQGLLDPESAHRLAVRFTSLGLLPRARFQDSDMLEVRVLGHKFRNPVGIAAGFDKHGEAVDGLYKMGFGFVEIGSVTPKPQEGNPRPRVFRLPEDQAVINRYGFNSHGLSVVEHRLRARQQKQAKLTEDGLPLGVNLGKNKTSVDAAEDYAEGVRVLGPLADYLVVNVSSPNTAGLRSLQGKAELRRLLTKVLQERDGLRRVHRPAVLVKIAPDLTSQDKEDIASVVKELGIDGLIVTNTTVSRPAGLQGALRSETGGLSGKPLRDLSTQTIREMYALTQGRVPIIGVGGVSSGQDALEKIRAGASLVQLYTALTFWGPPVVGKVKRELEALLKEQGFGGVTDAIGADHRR
# UniProt Q13888: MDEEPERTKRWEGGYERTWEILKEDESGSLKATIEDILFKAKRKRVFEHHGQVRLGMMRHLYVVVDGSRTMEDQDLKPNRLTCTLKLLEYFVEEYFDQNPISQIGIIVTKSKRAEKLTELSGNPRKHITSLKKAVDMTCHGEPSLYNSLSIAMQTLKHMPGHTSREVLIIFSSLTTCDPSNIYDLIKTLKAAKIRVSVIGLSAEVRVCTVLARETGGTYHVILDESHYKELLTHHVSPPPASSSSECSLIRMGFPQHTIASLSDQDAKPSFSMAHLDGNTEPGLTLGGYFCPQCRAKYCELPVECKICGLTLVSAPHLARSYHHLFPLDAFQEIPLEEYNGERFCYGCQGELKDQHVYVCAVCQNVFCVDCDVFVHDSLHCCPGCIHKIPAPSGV
# UniProt Q6P1K8: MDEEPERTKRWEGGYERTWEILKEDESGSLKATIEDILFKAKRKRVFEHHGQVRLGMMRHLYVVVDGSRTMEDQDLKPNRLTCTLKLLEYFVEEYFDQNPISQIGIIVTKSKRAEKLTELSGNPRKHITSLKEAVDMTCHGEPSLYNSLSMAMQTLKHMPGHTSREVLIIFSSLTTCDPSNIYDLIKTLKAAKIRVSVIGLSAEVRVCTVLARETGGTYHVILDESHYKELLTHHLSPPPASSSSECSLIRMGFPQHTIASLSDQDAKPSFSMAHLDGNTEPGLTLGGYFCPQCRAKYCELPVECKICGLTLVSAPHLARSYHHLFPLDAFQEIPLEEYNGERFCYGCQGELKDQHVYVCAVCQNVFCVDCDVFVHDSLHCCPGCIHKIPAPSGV
# UniProt Q13347, whole entry: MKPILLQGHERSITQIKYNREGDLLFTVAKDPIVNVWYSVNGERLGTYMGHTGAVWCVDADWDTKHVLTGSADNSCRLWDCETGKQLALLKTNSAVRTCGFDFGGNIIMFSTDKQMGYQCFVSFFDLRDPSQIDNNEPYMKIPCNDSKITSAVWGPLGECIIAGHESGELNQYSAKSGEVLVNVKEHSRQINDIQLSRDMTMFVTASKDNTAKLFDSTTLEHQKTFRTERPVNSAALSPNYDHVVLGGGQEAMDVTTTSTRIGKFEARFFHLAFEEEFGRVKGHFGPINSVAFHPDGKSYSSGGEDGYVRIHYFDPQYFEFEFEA
# UniProt Q14232, whole entry: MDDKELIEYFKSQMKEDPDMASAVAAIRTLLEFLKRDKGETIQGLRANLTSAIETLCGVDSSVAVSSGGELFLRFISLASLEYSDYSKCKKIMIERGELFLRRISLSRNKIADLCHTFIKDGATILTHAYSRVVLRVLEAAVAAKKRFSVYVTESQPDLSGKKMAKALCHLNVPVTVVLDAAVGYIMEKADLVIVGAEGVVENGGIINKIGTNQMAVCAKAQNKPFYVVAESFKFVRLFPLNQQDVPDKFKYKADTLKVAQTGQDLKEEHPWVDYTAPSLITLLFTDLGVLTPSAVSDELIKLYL
# UniProt Q14145, whole entry: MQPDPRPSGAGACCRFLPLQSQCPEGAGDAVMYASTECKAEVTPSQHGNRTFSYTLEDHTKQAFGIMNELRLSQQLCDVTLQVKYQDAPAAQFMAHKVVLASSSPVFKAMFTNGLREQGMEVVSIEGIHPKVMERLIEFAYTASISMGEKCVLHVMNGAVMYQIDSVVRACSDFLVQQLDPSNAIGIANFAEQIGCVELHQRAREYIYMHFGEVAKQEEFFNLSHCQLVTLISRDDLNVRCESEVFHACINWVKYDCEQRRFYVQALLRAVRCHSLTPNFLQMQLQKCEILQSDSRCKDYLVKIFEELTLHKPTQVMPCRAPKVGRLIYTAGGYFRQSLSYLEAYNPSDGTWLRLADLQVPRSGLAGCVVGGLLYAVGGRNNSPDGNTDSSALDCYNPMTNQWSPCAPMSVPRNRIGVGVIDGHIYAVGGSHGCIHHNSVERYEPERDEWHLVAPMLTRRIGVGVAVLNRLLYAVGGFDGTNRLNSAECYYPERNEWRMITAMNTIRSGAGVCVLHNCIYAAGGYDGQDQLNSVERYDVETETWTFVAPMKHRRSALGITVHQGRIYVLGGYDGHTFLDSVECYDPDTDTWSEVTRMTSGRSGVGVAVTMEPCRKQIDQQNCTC
# UniProt Q14571, whole entry: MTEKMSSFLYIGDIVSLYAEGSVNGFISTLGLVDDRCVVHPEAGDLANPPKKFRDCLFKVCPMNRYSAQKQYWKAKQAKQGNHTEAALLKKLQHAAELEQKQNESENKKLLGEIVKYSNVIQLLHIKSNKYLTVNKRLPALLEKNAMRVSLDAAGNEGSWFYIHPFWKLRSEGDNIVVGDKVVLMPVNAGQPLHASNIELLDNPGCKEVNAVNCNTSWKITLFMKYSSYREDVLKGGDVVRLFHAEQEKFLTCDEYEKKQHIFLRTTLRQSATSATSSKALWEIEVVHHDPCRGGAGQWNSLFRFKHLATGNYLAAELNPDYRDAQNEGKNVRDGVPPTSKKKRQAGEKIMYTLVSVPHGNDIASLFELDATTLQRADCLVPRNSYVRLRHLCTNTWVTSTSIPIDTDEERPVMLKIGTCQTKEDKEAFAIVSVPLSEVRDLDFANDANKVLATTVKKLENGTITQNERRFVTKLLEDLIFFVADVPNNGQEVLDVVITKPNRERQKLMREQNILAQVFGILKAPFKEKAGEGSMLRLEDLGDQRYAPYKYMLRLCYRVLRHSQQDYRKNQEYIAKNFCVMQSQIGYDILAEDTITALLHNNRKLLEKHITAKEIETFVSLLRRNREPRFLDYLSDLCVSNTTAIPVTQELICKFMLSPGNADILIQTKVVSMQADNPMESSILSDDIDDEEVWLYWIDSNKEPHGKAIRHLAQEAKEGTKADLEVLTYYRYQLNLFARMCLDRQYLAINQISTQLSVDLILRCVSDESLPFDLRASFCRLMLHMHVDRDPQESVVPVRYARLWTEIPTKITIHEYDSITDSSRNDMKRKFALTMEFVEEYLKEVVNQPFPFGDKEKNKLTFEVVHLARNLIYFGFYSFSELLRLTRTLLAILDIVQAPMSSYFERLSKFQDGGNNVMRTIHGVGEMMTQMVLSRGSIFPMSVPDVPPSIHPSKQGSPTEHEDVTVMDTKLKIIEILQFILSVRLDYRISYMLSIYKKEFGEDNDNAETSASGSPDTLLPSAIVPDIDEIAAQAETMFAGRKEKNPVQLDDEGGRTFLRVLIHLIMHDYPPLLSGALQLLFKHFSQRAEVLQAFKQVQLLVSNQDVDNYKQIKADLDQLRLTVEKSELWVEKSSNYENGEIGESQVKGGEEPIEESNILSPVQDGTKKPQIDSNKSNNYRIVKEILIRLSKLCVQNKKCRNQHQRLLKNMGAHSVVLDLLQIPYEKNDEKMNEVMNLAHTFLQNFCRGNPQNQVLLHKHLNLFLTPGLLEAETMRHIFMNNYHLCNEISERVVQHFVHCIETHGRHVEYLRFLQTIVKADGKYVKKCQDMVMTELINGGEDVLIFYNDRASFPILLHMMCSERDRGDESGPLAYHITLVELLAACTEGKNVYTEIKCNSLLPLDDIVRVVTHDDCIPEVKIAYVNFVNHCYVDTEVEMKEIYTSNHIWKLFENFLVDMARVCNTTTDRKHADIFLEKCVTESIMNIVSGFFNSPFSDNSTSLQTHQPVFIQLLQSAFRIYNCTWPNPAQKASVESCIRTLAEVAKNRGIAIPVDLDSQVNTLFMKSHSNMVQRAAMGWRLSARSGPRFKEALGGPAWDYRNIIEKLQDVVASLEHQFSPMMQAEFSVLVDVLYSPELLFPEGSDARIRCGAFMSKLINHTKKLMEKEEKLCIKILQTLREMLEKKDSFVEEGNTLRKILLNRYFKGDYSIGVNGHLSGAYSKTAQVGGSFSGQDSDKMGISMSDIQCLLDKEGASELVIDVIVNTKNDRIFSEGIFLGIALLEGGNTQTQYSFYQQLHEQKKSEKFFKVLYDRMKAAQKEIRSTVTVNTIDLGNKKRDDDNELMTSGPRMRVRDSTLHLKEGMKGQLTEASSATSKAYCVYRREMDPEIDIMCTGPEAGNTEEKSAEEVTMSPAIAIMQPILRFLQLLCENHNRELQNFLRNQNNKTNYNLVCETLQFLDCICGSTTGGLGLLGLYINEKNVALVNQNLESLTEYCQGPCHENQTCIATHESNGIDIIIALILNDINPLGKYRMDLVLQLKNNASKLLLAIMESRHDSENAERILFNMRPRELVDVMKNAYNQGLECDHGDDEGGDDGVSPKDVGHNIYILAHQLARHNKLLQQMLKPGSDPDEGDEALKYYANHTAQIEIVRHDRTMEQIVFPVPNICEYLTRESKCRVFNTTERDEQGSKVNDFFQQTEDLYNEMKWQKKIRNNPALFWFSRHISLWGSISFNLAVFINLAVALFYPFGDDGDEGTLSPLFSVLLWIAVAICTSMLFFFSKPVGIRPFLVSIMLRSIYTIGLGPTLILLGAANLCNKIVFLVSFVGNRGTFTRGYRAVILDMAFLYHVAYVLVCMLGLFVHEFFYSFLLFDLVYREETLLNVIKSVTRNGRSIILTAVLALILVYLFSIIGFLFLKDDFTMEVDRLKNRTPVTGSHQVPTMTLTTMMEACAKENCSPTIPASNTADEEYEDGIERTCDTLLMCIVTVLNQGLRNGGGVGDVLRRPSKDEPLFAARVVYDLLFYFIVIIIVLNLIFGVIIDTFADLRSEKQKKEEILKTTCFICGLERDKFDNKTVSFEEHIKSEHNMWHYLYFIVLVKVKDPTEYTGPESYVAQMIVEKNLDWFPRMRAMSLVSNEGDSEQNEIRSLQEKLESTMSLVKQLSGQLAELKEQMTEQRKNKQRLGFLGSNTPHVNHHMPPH
# UniProt Q13162: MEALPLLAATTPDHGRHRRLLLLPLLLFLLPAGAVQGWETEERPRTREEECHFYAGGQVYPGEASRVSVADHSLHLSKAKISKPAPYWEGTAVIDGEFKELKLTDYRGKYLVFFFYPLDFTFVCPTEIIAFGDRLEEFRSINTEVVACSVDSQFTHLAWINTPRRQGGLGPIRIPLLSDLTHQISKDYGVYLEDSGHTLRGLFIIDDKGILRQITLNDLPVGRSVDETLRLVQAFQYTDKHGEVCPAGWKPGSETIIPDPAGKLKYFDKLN
# UniProt Q14671: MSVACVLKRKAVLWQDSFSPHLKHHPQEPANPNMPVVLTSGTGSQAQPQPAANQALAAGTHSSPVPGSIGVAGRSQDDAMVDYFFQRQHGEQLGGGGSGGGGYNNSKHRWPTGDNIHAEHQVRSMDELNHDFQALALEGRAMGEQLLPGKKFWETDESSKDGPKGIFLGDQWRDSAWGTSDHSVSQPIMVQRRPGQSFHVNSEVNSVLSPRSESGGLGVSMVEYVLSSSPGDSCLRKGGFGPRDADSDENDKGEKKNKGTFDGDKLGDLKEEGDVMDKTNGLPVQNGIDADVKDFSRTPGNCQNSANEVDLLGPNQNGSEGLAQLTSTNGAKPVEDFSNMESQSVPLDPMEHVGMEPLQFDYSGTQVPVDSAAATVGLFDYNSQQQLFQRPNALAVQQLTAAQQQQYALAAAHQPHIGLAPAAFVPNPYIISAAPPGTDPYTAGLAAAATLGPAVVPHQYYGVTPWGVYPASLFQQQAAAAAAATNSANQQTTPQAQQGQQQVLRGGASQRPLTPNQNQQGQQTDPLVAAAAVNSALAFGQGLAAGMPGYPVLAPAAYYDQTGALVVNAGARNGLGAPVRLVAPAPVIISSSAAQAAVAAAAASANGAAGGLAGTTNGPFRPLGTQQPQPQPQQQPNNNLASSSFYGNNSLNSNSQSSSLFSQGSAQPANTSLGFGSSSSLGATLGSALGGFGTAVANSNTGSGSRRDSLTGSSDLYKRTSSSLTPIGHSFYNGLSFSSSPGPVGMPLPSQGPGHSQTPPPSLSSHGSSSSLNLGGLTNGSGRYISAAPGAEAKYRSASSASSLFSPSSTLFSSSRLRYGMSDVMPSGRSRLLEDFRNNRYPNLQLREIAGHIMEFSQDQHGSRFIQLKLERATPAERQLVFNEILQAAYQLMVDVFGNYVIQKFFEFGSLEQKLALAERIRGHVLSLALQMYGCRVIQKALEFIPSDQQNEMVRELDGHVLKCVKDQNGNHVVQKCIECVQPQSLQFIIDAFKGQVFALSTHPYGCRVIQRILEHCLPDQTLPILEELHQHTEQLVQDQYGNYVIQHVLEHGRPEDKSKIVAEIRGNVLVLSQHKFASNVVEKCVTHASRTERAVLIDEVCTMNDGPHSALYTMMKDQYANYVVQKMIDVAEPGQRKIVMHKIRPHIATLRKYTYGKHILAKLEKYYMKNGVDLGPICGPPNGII
# ± gives the standard deviation of the averaged measurements. Some of the results follow.
# Compound: Nc1nc2c(ncn2[C@@H]2O[C@H](COP(=O)(O)OP(=O)(O)OP(=O)(O)O)[C@@H](O)[C@H]2O)c(=O)[nH]1 [guanosine triphosphate]
# Assay: NP40-soluble protein abundance relative to vehicle (solubility fold change) (ratio); higher = more soluble protein in presence of GTP
# Procedure, shortened: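 Crude Jurkat lysate, prepared by Dounce homogenisation, was exposed to eight concentrations from 0.1 to 10 mM for 10 min at room temperature and then 3 min at 37 °C. Solubilisation used 0.8% NP40 with benzonase for 60 min at 4 °C, followed by ultracentrifugation and TMT labelling of the supernatant for LC-MS/MS. After vsn normalisation of intensities, each value is the fold change against the detergent-processed vehicle within each replicate, across three independent experiments.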
Target,NP40-soluble protein abundance (concentration: 0.1mM),NP40-soluble protein abundance (concentration: 0.5mM),NP40-soluble protein abundance (concentration: 1mM),NP40-soluble protein abundance (concentration: 2mM),NP40-soluble protein abundance (concentration: 4mM),NP40-soluble protein abundance (concentration: 6mM),NP40-soluble protein abundance (concentration: 8mM),NP40-soluble protein abundance (concentration: 10mM)
UniProt Q02086 and related entries,1.11 ± 0.23,1.12 ± 0.21,1.17 ± 0.085,1.09 ± 0.21,1.07 ± 0.3,1.14 ± 0.21,1.2 ± 0.088,1.3 ± 0.25
GABPA (UniProt Q06546),1.02 ± 0.033,0.982 ± 0.018,0.921 ± 0.052,0.914 ± 0.088,0.868 ± 0.066,0.889 ± 0.043,0.871 ± 0.058,0.83 ± 0.098
YWHAH (UniProt Q04917),0.812 ± 0.096,0.764 ± 0.081,0.962 ± 0.084,0.917 ± 0.048,0.899 ± 0.058,0.934 ± 0.075,0.862 ± 0.12,0.955 ± 0.062
DHODH (UniProt Q02127),1.07 ± 0.088,1.01 ± 0.098,0.979 ± 0.1,0.984 ± 0.081,0.994 ± 0.14,0.935 ± 0.085,0.926 ± 0.11,0.906 ± 0.12
Q13888 and related entries (UniProt Q6P1K8+Q13888),1.13 ± 0.22,1.14 ± 0.19,1.12 ± 0.18,1.17 ± 0.15,1.17 ± 0.21,1.15 ± 0.16,1.17 ± 0.24,1.15 ± 0.16
UniProt Q13308 and related entries,0.957 ± 0.065,0.895 ± 0.043,0.946 ± 0.067,0.91 ± 0.08,0.922 ± 0.079,0.868 ± 0.05,0.925 ± 0.078,0.883 ± 0.078
UniProt Q13029 and related entries,1.03 ± 0.12,1.07 ± 0.057,1.14 ± 0.025,1.09 ± 0.15,1.04 ± 0.12,1.02 ± 0.15,1.12 ± 0.093,1.15 ± 0.11
PLS1 (UniProt Q14651),0.958 ± 0.08,0.956 ± 0.085,0.937 ± 0.095,0.912 ± 0.075,0.903 ± 0.089,0.891 ± 0.058,0.887 ± 0.094,0.888 ± 0.088
UniProt Q12933 and related entries,0.987 ± 0.025,1.03 ± 0.079,0.994 ± 0.045,0.982 ± 0.064,0.989 ± 0.066,1.02 ± 0.055,0.983 ± 0.06,0.996 ± 0.068
UniProt Q01804 and related entries,0.998 ± 0.079,1 ± 0.089,1.04 ± 0.044,1.01 ± 0.045,1.07 ± 0.044,1.03 ± 0.071,1.062 ± 0.0079,1.07 ± 0.03
UniProt Q13310-3|Q13310,0.95 ± 0.054,0.998 ± 0.05,0.964 ± 0.025,0.988 ± 0.042,0.987 ± 0.013,1.033 ± 0.0067,1.03 ± 0.025,1.06 ± 0.012
UniProt Q13243,0.945 ± 0.1,1.12 ± 0.055,1.25 ± 0.13,1.23 ± 0.17,1.27 ± 0.21,1.4 ± 0.26,1.58 ± 0.34,1.6 ± 0.37
EIF3I (UniProt Q13347),1.02 ± 0.04,1.03 ± 0.091,0.993 ± 0.089,1.04 ± 0.15,1.13 ± 0.19,1.26 ± 0.26,1.32 ± 0.23,1.4 ± 0.29
EIF2B1 (UniProt Q14232),0.97 ± 0.013,0.969 ± 0.022,0.945 ± 0.026,0.924 ± 0.06,0.915 ± 0.035,0.925 ± 0.042,0.899 ± 0.015,0.885 ± 0.03
KEAP1 (UniProt Q14145),1.05 ± 0.15,0.977 ± 0.077,0.918 ± 0.05,0.912 ± 0.16,0.916 ± 0.072,0.913 ± 0.08,0.91 ± 0.043,0.923 ± 0.12
XRCC4 (UniProt Q13426),1.01 ± 0.043,1.07 ± 0.058,1.07 ± 0.062,1.16 ± 0.098,1.12 ± 0.12,1.21 ± 0.14,1.21 ± 0.15,1.22 ± 0.16
XPC (UniProt Q01831),0.945 ± 0.07,0.948 ± 0.056,0.943 ± 0.028,0.934 ± 0.022,0.99 ± 0.051,0.997 ± 0.054,1.02 ± 0.045,1.01 ± 0.041
ITPR2 (UniProt Q14571),1.1 ± 0.11,1.17 ± 0.2,1.18 ± 0.19,1.31 ± 0.24,1.33 ± 0.26,1.37 ± 0.27,1.35 ± 0.3,1.3 ± 0.28
PRDX4 (UniProt Q13162),1.03 ± 0.075,1.08 ± 0.1,0.966 ± 0.069,0.995 ± 0.074,0.983 ± 0.15,0.992 ± 0.089,0.943 ± 0.062,0.943 ± 0.044
CUL3 (UniProt Q13618),1.04 ± 0.046,1.05 ± 0.066,0.956 ± 0.015,0.973 ± 0.058,0.938 ± 0.049,0.932 ± 0.03,0.917 ± 0.011,0.886 ± 0.059
VAC14 (UniProt Q08AM6),1.02 ± 0.03,1.06 ± 0.046,1 ± 0.068,1.02 ± 0.049,1.02 ± 0.067,1.03 ± 0.078,1.05 ± 0.11,1.01 ± 0.074
UniProt Q13033-2|H0YJT2,0.991 ± 0.014,1.04 ± 0.016,1.04 ± 0.038,1.02 ± 0.071,1.01 ± 0.071,1.03 ± 0.076,1.08 ± 0.12,1.06 ± 0.12
UniProt Q08AE8 and related entries,1.1 ± 0.18,0.994 ± 0.21,0.961 ± 0.11,0.92 ± 0.098,0.902 ± 0.04,0.862 ± 0.018,0.876 ± 0.11,0.816 ± 0.063
UniProt Q01518 and related entries,0.974 ± 0.016,1.01 ± 0.026,1 ± 0.039,0.973 ± 0.053,0.965 ± 0.038,0.984 ± 0.05,0.998 ± 0.085,0.966 ± 0.071
UniProt Q12888 and related entries,0.977 ± 0.053,0.984 ± 0.063,1.01 ± 0.044,0.979 ± 0.087,0.984 ± 0.055,0.997 ± 0.065,1.03 ± 0.061,1 ± 0.066
UniProt Q13501 and related entries,1.02 ± 0.065,1.01 ± 0.043,1.1 ± 0.085,1.11 ± 0.13,1.12 ± 0.15,1.09 ± 0.13,1.16 ± 0.18,1.19 ± 0.23
UniProt Q14671 and related entries,0.981 ± 0.026,0.967 ± 0.028,0.988 ± 0.035,0.931 ± 0.063,0.909 ± 0.067,0.924 ± 0.075,0.948 ± 0.012,0.94 ± 0.028

# As a working copy, part of the list above.
Target,NP40-soluble protein abundance (concentration: 0.1mM),NP40-soluble protein abundance (concentration: 0.5mM),NP40-soluble protein abundance (concentration: 1mM),NP40-soluble protein abundance (concentration: 2mM),NP40-soluble protein abundance (concentration: 4mM),NP40-soluble protein abundance (concentration: 6mM),NP40-soluble protein abundance (concentration: 8mM),NP40-soluble protein abundance (concentration: 10mM)
Q13888 and related entries (UniProt Q6P1K8+Q13888),1.13 ± 0.22,1.14 ± 0.19,1.12 ± 0.18,1.17 ± 0.15,1.17 ± 0.21,1.15 ± 0.16,1.17 ± 0.24,1.15 ± 0.16
UniProt Q13308 and related entries,0.957 ± 0.065,0.895 ± 0.043,0.946 ± 0.067,0.91 ± 0.08,0.922 ± 0.079,0.868 ± 0.05,0.925 ± 0.078,0.883 ± 0.078
UniProt Q13029 and related entries,1.03 ± 0.12,1.07 ± 0.057,1.14 ± 0.025,1.09 ± 0.15,1.04 ± 0.12,1.02 ± 0.15,1.12 ± 0.093,1.15 ± 0.11
PLS1 (UniProt Q14651),0.958 ± 0.08,0.956 ± 0.085,0.937 ± 0.095,0.912 ± 0.075,0.903 ± 0.089,0.891 ± 0.058,0.887 ± 0.094,0.888 ± 0.088
UniProt Q12933 and related entries,0.987 ± 0.025,1.03 ± 0.079,0.994 ± 0.045,0.982 ± 0.064,0.989 ± 0.066,1.02 ± 0.055,0.983 ± 0.06,0.996 ± 0.068
